Assay results published in the supplement of paper PMC10849652.
The list shows a part of the results.

Protein sequences, listed by entry. Tags and fused reporters are not part of them. Lines headed by an entry give the natural chain unless they say otherwise; changes in a name come on top.
UniProt Q9H3R5: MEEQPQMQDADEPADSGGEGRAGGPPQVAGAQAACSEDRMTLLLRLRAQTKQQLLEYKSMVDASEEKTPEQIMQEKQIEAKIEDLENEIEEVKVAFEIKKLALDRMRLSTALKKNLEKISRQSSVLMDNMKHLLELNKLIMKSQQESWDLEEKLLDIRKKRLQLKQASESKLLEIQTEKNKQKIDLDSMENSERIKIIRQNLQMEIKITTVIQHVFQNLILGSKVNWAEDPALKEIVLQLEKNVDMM
UniProt O75419: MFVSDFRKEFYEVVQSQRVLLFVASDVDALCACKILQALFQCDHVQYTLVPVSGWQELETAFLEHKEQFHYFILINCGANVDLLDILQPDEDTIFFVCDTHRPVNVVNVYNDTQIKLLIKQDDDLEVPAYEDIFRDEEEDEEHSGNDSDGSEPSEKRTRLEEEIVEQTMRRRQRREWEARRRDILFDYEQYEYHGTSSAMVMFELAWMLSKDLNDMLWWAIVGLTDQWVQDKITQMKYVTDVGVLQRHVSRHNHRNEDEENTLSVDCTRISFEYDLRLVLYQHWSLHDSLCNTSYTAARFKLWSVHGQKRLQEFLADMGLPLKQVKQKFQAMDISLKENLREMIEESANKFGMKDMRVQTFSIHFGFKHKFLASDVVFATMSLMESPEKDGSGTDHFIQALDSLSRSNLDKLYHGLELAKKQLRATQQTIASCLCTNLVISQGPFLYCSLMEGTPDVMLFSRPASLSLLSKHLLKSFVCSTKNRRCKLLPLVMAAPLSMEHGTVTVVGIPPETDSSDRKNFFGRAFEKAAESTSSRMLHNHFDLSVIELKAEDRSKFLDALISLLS
UniProt Q00537: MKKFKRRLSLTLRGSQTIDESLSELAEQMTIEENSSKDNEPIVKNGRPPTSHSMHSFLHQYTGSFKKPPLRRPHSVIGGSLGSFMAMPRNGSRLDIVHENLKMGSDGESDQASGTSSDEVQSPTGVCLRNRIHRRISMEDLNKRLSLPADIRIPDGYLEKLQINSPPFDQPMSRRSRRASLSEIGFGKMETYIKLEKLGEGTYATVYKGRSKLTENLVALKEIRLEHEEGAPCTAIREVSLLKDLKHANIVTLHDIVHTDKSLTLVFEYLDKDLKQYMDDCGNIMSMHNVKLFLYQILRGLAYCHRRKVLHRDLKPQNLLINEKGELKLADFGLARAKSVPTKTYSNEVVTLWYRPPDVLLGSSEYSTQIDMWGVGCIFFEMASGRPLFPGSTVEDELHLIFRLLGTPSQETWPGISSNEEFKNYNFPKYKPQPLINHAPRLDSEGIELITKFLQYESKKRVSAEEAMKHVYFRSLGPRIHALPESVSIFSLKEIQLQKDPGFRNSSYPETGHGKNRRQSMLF
UniProt Q6ZU80: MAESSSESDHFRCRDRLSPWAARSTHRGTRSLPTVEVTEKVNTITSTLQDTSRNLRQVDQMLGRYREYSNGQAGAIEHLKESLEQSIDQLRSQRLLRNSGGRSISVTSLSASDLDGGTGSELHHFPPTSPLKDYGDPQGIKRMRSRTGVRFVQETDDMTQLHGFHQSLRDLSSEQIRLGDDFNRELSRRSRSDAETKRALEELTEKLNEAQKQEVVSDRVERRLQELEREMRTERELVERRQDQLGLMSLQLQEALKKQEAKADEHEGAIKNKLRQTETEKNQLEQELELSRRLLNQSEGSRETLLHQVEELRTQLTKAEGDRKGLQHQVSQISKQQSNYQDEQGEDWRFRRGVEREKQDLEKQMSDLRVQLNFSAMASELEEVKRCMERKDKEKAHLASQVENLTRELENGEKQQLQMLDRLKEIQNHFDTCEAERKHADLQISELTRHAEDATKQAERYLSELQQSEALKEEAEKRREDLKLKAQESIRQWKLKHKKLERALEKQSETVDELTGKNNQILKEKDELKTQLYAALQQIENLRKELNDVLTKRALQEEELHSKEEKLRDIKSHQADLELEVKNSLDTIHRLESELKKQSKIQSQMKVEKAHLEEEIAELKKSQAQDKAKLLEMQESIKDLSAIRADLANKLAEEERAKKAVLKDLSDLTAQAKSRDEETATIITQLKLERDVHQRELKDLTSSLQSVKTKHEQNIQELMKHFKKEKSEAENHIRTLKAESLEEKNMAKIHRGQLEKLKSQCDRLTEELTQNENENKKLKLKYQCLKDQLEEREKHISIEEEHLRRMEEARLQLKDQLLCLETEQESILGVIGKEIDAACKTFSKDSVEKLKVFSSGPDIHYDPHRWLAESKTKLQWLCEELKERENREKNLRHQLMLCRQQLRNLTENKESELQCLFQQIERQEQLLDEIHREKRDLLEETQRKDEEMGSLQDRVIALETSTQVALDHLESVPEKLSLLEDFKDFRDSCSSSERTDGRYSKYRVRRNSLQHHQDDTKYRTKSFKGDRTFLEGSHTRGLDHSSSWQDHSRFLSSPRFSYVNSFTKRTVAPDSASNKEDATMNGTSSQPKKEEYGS
UniProt Q8WYQ3: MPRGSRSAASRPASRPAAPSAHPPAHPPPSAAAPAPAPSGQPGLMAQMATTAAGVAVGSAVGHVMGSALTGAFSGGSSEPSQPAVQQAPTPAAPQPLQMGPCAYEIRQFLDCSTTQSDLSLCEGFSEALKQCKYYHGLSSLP
UniProt P11802: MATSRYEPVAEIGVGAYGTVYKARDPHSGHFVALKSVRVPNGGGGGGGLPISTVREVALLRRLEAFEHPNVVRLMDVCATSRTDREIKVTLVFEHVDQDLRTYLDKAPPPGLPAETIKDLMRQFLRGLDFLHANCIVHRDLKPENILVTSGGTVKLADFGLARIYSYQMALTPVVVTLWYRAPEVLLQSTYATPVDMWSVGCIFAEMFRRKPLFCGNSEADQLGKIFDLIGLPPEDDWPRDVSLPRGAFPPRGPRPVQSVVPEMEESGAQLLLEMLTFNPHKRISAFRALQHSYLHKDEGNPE
UniProt O75956: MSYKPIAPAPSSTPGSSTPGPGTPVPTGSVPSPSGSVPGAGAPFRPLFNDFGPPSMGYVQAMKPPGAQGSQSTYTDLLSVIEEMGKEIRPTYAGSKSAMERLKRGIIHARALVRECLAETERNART
UniProt Q9UPN4: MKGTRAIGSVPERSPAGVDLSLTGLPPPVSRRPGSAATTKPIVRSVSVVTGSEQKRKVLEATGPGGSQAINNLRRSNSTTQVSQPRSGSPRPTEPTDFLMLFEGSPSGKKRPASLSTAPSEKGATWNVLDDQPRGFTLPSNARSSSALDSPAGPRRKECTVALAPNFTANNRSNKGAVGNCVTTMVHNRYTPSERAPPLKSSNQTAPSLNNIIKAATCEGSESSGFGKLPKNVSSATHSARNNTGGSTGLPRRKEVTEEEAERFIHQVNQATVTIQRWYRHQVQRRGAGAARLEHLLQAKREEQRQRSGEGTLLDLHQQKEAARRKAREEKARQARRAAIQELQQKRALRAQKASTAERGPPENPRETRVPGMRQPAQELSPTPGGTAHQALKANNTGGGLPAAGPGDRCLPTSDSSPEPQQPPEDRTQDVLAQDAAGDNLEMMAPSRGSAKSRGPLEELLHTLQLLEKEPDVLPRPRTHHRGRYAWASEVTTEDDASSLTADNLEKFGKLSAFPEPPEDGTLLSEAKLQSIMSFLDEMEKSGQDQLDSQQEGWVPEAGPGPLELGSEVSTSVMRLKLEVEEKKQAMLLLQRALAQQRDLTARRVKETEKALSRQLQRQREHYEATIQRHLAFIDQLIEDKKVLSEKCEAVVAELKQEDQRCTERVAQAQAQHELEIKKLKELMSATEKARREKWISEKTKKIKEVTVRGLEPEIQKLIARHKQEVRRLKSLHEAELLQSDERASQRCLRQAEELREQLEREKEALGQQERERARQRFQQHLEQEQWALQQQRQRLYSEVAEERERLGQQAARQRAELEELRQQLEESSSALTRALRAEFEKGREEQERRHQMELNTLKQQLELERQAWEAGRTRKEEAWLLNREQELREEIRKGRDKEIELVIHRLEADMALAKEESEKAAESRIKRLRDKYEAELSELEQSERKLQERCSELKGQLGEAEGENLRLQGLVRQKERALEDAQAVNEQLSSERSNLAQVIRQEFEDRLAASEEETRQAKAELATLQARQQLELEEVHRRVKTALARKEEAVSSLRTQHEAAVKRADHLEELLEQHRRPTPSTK
UniProt P49336: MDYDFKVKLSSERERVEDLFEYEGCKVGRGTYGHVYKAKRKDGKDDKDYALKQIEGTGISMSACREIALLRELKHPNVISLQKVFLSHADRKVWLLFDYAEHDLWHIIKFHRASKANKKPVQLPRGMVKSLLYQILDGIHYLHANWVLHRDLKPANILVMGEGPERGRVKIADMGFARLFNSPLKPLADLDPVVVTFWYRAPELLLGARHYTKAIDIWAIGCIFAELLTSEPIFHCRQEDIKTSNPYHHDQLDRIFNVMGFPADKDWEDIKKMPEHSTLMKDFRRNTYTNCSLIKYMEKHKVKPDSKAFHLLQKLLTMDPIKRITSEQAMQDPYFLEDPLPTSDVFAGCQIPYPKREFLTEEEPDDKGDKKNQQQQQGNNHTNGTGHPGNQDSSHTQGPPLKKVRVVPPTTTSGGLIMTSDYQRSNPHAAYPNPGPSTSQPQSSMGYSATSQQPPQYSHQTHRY
UniProt Q9BU64: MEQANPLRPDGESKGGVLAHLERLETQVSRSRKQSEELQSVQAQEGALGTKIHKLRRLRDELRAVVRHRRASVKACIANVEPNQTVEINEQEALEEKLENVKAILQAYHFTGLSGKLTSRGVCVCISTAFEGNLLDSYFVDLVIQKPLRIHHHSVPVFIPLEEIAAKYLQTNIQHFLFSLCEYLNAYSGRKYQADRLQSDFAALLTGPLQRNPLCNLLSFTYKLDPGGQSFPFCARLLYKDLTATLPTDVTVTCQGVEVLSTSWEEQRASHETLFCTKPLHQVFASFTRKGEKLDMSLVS
UniProt Q9BS16: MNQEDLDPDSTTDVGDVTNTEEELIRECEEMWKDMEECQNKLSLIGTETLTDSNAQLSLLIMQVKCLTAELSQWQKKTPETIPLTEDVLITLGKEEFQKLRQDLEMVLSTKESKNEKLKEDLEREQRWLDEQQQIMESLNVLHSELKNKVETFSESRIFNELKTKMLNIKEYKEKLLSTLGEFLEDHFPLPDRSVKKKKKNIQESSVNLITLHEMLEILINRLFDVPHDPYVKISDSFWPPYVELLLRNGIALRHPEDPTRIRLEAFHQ
UniProt Q6IPU0: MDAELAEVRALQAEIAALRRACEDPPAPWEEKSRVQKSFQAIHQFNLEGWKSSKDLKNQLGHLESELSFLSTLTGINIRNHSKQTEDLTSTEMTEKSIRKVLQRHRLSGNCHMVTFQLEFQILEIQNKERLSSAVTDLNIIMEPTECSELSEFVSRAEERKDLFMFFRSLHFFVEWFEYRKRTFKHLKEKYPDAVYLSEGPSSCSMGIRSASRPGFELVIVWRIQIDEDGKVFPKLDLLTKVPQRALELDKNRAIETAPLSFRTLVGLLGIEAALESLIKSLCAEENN
UniProt Q66GS9: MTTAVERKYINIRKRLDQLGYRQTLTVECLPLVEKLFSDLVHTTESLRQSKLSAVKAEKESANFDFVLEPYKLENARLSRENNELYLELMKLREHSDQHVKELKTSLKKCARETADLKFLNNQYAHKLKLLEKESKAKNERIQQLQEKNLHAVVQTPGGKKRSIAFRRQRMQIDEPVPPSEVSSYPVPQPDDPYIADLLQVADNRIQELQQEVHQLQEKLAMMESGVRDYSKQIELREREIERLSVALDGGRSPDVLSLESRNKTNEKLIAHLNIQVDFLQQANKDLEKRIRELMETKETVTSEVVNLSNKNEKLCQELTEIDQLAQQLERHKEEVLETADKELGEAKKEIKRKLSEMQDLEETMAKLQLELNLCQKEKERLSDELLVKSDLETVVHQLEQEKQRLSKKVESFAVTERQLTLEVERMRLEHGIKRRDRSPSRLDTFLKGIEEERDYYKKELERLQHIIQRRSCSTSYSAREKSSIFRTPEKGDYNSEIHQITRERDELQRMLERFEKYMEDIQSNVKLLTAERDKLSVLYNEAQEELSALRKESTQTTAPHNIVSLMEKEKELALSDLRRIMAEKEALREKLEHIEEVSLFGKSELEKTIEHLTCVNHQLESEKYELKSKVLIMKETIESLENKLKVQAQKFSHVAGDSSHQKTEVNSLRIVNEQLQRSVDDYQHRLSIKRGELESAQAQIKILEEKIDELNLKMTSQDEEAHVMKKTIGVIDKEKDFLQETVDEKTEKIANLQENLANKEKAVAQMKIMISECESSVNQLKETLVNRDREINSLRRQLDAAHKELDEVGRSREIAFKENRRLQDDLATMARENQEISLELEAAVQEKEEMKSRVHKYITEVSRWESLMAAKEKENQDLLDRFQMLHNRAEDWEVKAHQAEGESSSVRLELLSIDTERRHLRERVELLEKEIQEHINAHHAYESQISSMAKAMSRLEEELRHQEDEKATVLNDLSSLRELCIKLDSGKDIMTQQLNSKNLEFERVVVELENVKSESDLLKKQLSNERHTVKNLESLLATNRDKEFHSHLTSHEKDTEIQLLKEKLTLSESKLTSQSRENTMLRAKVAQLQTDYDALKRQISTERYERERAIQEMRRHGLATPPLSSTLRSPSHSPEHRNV

Experiments:
Test in all cases: log2 fold change, soluble protein after heating vs DMSO (PISA); higher = thermal stabilisation; K562 cells, 10 uM, 30 min; active = over 0.2 and 3.5 SD of the protein, either way, in both replicates (recomputed)
[1] = compound: COC1=CC=C(C=C1)CN2C=CC3=C2C=C(C=C3)C(=O)NO
Method in brief: (§1)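 Quantification of soluble protein used TMTpro 16plex LC-MS/MS, with channel sums equalised. Samples were the supernatant after 21,000xg for 90 min of pooled aliquots from K562 cells (2×10^6 cells/mL) treated with 10 μM compound for 30 min, heated for 3 min over 48°C-58°C, and extracted in PBS with 0.5% NP-40 at 4°C. Values, from duplicates, describe thermal stability against control samples on a log2 fold-change scale.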

filanesib = compound: CON(C)C(=O)N1N=C(c2cc(F)ccc2F)S[C@@]1(CCCN)c1ccccc1 [filanesib]
Method in brief: as §1

zotarolimus = compound: CO[C@H]1C[C@@H]2CC[C@@H](C)[C@@](O)(O2)C(=O)C(=O)N2CCCC[C@H]2C(=O)O[C@H]([C@H](C)C[C@@H]2CC[C@H](n3cnnn3)[C@H](OC)C2)CC(=O)[C@H](C)/C=C(\C)[C@@H](O)[C@@H](OC)C(=O)[C@H](C)C[C@H](C)/C=C/C=C/C=C/1C [zotarolimus]
Method in brief: as §1

idasanutlin = compound: COc1cc(C(=O)O)ccc1NC(=O)[C@@H]1N[C@@H](CC(C)(C)C)[C@](C#N)(c2ccc(Cl)cc2F)[C@H]1c1cccc(Cl)c1F [idasanutlin]
Method in brief: as §1

alisertib = compound: COc1cc(Nc2ncc3c(n2)-c2ccc(Cl)cc2C(c2c(F)cccc2OC)=NC3)ccc1C(=O)O [alisertib]
Method in brief: as §1

[2] = compound: COc1cc2nc(-c3cc(F)ccc3O)nc(N[C@@H]3CNC[C@H]3C(C)(C)O)c2cc1OC
Method in brief: as §1

gefitinib = compound: COc1cc2ncnc(Nc3ccc(F)c(Cl)c3)c2cc1OCCCN1CCOCC1 [gefitinib]
Method in brief: as §1

[3] = compound: COc1cccc2cc(-c3nc([C@H]4CC[C@H](C(=O)O)CC4)n4ncnc(N)c34)[nH]c12
Method in brief: as §1

lapatinib = compound: CS(=O)(=O)CCNCc1ccc(-c2ccc3ncnc(Nc4ccc(OCc5cccc(F)c5)c(Cl)c4)c3c2)o1 [lapatinib]
Method in brief: as §1

[4] = compound: CS(=O)(=O)c1ccc(-c2cnc(N)c(C(=O)Nc3ccccc3)n2)cc1
Method in brief: as §1

crizotinib = compound: C[C@@H](Oc1cc(-c2cnn(C3CCNCC3)c2)cnc1N)c1c(Cl)ccc(F)c1Cl [crizotinib]
Method in brief: as §1

[5] = compound: C[C@@H]1COCCN1C2=NC(=NC(=C2)C3(CC3)S(=O)(=O)C)C4=C5C=CNC5=CC=C4
Method in brief: as §1

[6] = compound: C[C@H](C1=CC=C(C=C1)C(=O)NC2=C3C=CNC3=NC=C2)N
Method in brief: as §1

duvelisib = compound: C[C@H](Nc1ncnc2nc[nH]c12)c1cc2cccc(Cl)c2c(=O)n1-c1ccccc1 [duvelisib]
Method in brief: as §1

tozasertib = compound: Cc1cc(Nc2cc(N3CCN(C)CC3)nc(Sc3ccc(NC(=O)C4CC4)cc3)n2)n[nH]1 [tozasertib]
Method in brief: as §1

[7] = compound: Cc1cc(SCc2sc(-c3ccc(C(F)(F)F)cc3)nc2C)ccc1OCC(=O)O
Method in brief: as §1

doramapimod = compound: Cc1ccc(-n2nc(C(C)(C)C)cc2NC(=O)Nc2ccc(OCCN3CCOCC3)c3ccccc23)cc1 [doramapimod]
Method in brief: as §1

ispinesib = compound: Cc1ccc(C(=O)N(CCCN)[C@@H](c2nc3cc(Cl)ccc3c(=O)n2Cc2ccccc2)C(C)C)cc1 [ispinesib]
Method in brief: as §1

pictilisib = compound: CS(=O)(=O)N1CCN(Cc2cc3nc(-c4cccc5[nH]ncc45)nc(N4CCOCC4)c3s2)CC1 [pictilisib]
Method in brief: as §1

gandotinib = compound: Cc1cc(Nc2cc(CN3CCOCC3)c3nc(C)c(Cc4ccc(Cl)cc4F)n3n2)n[nH]1 [gandotinib]
Method in brief: as §1

Target | log2 fold change [1] | log2 fold change (filanesib) | log2 fold change (zotarolimus) | log2 fold change (idasanutlin) | log2 fold change (alisertib) | log2 fold change [2] | log2 fold change (gefitinib) | log2 fold change [3] | log2 fold change (lapatinib) | log2 fold change [4] | log2 fold change (crizotinib) | log2 fold change [5] | log2 fold change [6] | log2 fold change (duvelisib) | log2 fold change (tozasertib) | log2 fold change [7] | log2 fold change (doramapimod) | log2 fold change (ispinesib) | log2 fold change (pictilisib) | log2 fold change (gandotinib)
CENPH (UniProt Q9H3R5) | inactive: -0.061 | inactive: 0.079 | inactive: 0.09 | inactive: 0.17 | inactive: 0.047 | inactive: 0.096 | inactive: -0.082 | inactive: 0 | inactive: -0.075 | inactive: 0.023 | inactive: -0.142 | inactive: 0.027 | inactive: 0.315 | inactive: 0.173 | inactive: 0.106 | inactive: 0.09 | inactive: 0.003 | inactive: -0.226 | – | –
CEP120 (UniProt Q8N960) | inactive: 0.132 | inactive: 0.312 | inactive: -0.076 | inactive: -0.243 | inactive: -0.369 | inactive: 0.264 | – | inactive: 0.25 | inactive: 0.011 | inactive: -0.119 | inactive: -0.058 | inactive: 0.037 | inactive: 0.159 | – | inactive: -0.24 | – | inactive: 0.163 | inactive: -0.16 | – | –
CDC45 isoform 3 (UniProt O75419) | inactive: 0.013 | inactive: 0 | inactive: 0.036 | inactive: 0.104 | – | inactive: -0.154 | inactive: -0.131 | – | inactive: 0.129 | inactive: 0.115 | inactive: -0.228 | inactive: 0.07 | inactive: 0.179 | inactive: 0.039 | inactive: -0.012 | inactive: 0.096 | inactive: 0.174 | inactive: -0.198 | inactive: -0.227 | inactive: -0.053
CDK17 isoform 2 (UniProt Q00537) | inactive: -0.031 | inactive: -0.024 | inactive: -0.208 | inactive: 0.03 | inactive: 0.508 | inactive: 0.051 | – | inactive: 0.103 | inactive: 0.049 | inactive: 0.087 | inactive: -0.082 | inactive: -0.035 | inactive: 0.076 | – | – | inactive: 0.126 | inactive: 0.028 | – | inactive: 0.158 | inactive: 0.057
CEP128 (UniProt Q6ZU80) | inactive: -0.269 | inactive: 0.031 | inactive: -0.101 | inactive: -0.103 | active: 0.677 | inactive: 0.076 | – | inactive: -0.381 | inactive: -0.198 | inactive: 0.093 | inactive: 0.056 | – | inactive: 0.157 | – | – | inactive: -0.07 | inactive: 0.102 | – | – | –
CHCHD10 (UniProt Q8WYQ3) | inactive: -0.008 | – | – | – | inactive: -0.023 | inactive: 0.069 | inactive: 0.089 | inactive: 0.051 | inactive: 0.094 | – | inactive: 0.133 | inactive: 0.021 | – | – | – | – | inactive: 0.061 | inactive: 0.015 | – | –
CDK4 (UniProt P11802) | inactive: -0.111 | inactive: 0.09 | inactive: -0.071 | inactive: 0.061 | inactive: 0.062 | inactive: -0.049 | inactive: 0.017 | inactive: -0.057 | inactive: -0.031 | inactive: 0.108 | inactive: -0.108 | inactive: -0.152 | inactive: 0.377 | – | – | inactive: 0.021 | inactive: 0.079 | inactive: 0.094 | – | –
CEP97 isoform 2 (UniProt Q8IW35) | inactive: -0.12 | inactive: 0.094 | inactive: -0.009 | inactive: -0.022 | – | inactive: 0.097 | inactive: 0.092 | – | inactive: -0.111 | inactive: 0.051 | inactive: -0.171 | inactive: 0.021 | inactive: 0.296 | inactive: -0.205 | inactive: 0.098 | inactive: -0.04 | inactive: 0.097 | inactive: -0.056 | – | –
CDK2AP2 (UniProt O75956) | inactive: 0.078 | – | inactive: -0.022 | inactive: -0.043 | inactive: -0.019 | – | inactive: -0.009 | inactive: -0.11 | – | – | inactive: 0.213 | inactive: 0.173 | inactive: -0.015 | – | – | – | inactive: -0.014 | inactive: -0.011 | – | –
CEP131 (UniProt Q9UPN4) | inactive: 0.003 | inactive: 0.343 | inactive: 0.072 | inactive: 0.146 | inactive: -0.358 | inactive: -0.085 | – | inactive: -0.167 | inactive: -0.064 | inactive: -0.17 | inactive: -0.327 | inactive: -0.071 | inactive: 0.087 | inactive: -0.011 | inactive: 0.073 | inactive: 0.104 | inactive: 0.046 | – | inactive: -0.011 | inactive: 0.014
CEP250 (UniProt Q9BV73) | inactive: 0.131 | inactive: 0.138 | inactive: 0.132 | – | inactive: -0.009 | inactive: 0.103 | inactive: 0.016 | inactive: -0.025 | inactive: -0.131 | inactive: -0.023 | inactive: 0.115 | inactive: -0.024 | inactive: -0.062 | inactive: -0.082 | inactive: 0.126 | inactive: 0.171 | inactive: 0.182 | inactive: -0.089 | – | –
CDK8 (UniProt P49336) | inactive: 0.03 | inactive: 0.008 | inactive: -0.044 | inactive: -0.136 | inactive: -0.137 | inactive: -0.105 | – | inactive: -0.005 | inactive: -0.047 | inactive: -0.049 | inactive: -0.029 | inactive: 0.033 | inactive: 0.248 | – | – | inactive: 0.155 | active: 0.425 | inactive: 0.031 | inactive: 0.038 | inactive: -0.13
CENPO (UniProt Q9BU64) | inactive: -0.081 | inactive: -0.047 | inactive: 0.045 | inactive: 0.047 | inactive: -0.166 | inactive: -0.041 | inactive: -0.243 | inactive: -0.203 | inactive: -0.045 | inactive: -0.056 | inactive: -0.037 | inactive: 0.044 | inactive: -0.029 | inactive: 0.074 | inactive: -0.018 | inactive: -0.077 | inactive: 0.097 | inactive: 0.042 | – | –
CENPK (UniProt Q9BS16) | inactive: 0.053 | – | inactive: -0.117 | – | – | inactive: 0.061 | inactive: -0.005 | – | inactive: -0.062 | – | inactive: -0.102 | – | inactive: -0.202 | – | – | – | inactive: 0.053 | – | – | –
CENPP (UniProt Q6IPU0) | inactive: -0.087 | – | inactive: -0.021 | – | inactive: -0.106 | inactive: 0.031 | inactive: 0.021 | inactive: 0.302 | inactive: -0.004 | – | inactive: -0.147 | inactive: -0.203 | inactive: 0.028 | inactive: 0.036 | inactive: -0.025 | inactive: -0.054 | inactive: 0.012 | inactive: -0.027 | inactive: -0.041 | inactive: -0.13
CEP135 (UniProt Q66GS9) | inactive: 0.623 | inactive: 0.212 | inactive: 0.103 | inactive: -0.124 | – | – | – | – | – | inactive: 0.182 | inactive: 0.019 | inactive: 0.011 | inactive: -0.074 | inactive: -0.052 | – | inactive: 0.042 | inactive: 0.09 | – | inactive: 0.043 | inactive: 0.279

In a second layout: entries from further up.
Target	log2 fold change [1]	log2 fold change (filanesib)	log2 fold change (zotarolimus)	log2 fold change (idasanutlin)	log2 fold change (alisertib)	log2 fold change [2]	log2 fold change (gefitinib)	log2 fold change [3]	log2 fold change (lapatinib)	log2 fold change [4]	log2 fold change (crizotinib)	log2 fold change [5]	log2 fold change [6]	log2 fold change (duvelisib)	log2 fold change (tozasertib)	log2 fold change [7]	log2 fold change (doramapimod)	log2 fold change (ispinesib)	log2 fold change (pictilisib)	log2 fold change (gandotinib)
CENPO (UniProt Q9BU64)	inactive: -0.081	inactive: -0.047	inactive: 0.045	inactive: 0.047	inactive: -0.166	inactive: -0.041	inactive: -0.243	inactive: -0.203	inactive: -0.045	inactive: -0.056	inactive: -0.037	inactive: 0.044	inactive: -0.029	inactive: 0.074	inactive: -0.018	inactive: -0.077	inactive: 0.097	inactive: 0.042	–	–
CENPK (UniProt Q9BS16)	inactive: 0.053	–	inactive: -0.117	–	–	inactive: 0.061	inactive: -0.005	–	inactive: -0.062	–	inactive: -0.102	–	inactive: -0.202	–	–	–	inactive: 0.053	–	–	–
